These are yes or no findings as the source states them, for the method shown. Binding seen in cells or lysates may run through a third protein. A yes stands for co-enrichment or nearness to the bait. Other partners may have been found.
Biological target: PfSAMS-GFP-BirA fusion protein (P. falciparum)
Experiment: proximity labelling; BioID: PfSAMS-pfama1-GFP-BirA line treated with 50 µM biotin for 20-24 h; schizonts enriched by Percoll, lysed; biotinylated proteins purified on streptavidin beads and identified by LC-MS in triplicate; WT NF54 lysates as control; hits at least two-fold enriched, FDR 0.01

- binding: binds
B1: phosphoethanolamine N-methyltransferase PfPMT (enzyme, UniProt Q8IDQ9 1-266)
chain: MTLIENLNSDKTFLENNQYTDEGVKVYEFIFGENYISSGGLEATKKILSDIELNENSKVLDIGSGLGGGCMYINEKYGAHTHGIDICSNIVNMANERVSGNNKIIFEANDILTKEFPENNFDLIYSRDAILHLSLENKNKLFQKCYKWLKPTGTLLITDYCATEKENWDDEFKEYVKQRKYTLITVEEYADILTACNFKNVVSKDLSDYWNQLLEVEHKYLHENKEEFLKLFSEKKFISLDDGWSRKIKDSKRKMQRWGYFKATKN
